The nature of this data set: solid-phase peptide synthesis. As to conditions: whole synthesis, linear gradient, 20-60% eluent B/eluent A in 20 min.

Turning to “Ala Arg Ahp Tyr His Asp Gly Val Leu Bph Ahp Asp Cys”, the “final HPLC purity” value is 98.8%. Under “Ala Leu His MePhe Val Leu Pro Bph Val Trp Val Cys” stands 98.4%.

For the origin of these results see US20250263440A1 (PeptiDream Inc., priority 2019, published 2025).
